No constants are given. Whether binding was seen depends on the method and setting. Some entries that bind do so weakly or less than the wild type.
B1: L3F10-C (antibody, V domains shown)
VH: EVKLVESGGGLVNTGGSLKLSCAASGFTFSDYFMYWVRQTPDKRLEWVAYISNSGGNTYYPDTVKGRFTISRDNAKNTLYLQMSRLKSEDTAMYFCTRPRPYGGYYAGIYYAMDYWGQGTSVTVSS
VL: DIQMTQTTSSLSASLGDRVTISCRASQDISNYLNWYQQKPDGTVKLLIYYTSRLHSGVPSRFSGSGSGTDYSLTISNLEPEDIATYYCQQYSKLPLTFGAGTKLELK
B2: L3D5-C (antibody, V domains shown)
VH: GVQLQQSGPELVKPGASVKISCKASGYTFTDFYMNWVKQSHGKSLEWIGDINPNNGVTTYNQKFKDKATLTVDKSSSTAYMELRSLTSEDSAVYYCATGAIHYGYDGYFDVWGAGTTVTVSS
VL: DIVMTQSPATLSVTPGDRVSLSCRASQSISDYLHWYQQKSHESPRLLIKYASQSISGIPSRFSGSGSGSDFTLSINSVEPEDVGVYYCQNGHSFPLTFGAGTKLELK
B3: S3C7-C (antibody, V domains shown)
VH: EVKLVESGGGLVNTGGSLKLSCAASGFNFSHYYMYWVRQTPEKRLEWVAYIGNSGGSTYNPDTVKGRFTISRDNAKNTLYLQMSRLKSEDTAIYYCARQNYYSGSFYFDSWGQGTTITVSS
VL: NIVLTQSPTSMSMSVGERVTLSCKASENVGTYVSWYQQKPEQSPKLLIYGKSNRYTGVPDRFTGSGSAPDFTLTISSVQAEDLADYYCGQSYSFPFTFGTGTKLEIK
B4: S2F4-C (antibody, V domains shown)
VH: EVQLVESGGGLVKPGGSLKLSCAASGFTFSDYGMHWVRQAPEKGLEWIAYISFGSSTIYYADTVKGRFTISRDNAKNTLFLQMTSLRSEDTAMYYCARTHGYYRSWFAYWGQGTLVTVSA
VL: DIVLTQSPASLAVSLGQRATISCRASQSVSTSSYSYMNWYQQKPGQPPKLLIKYASNLESGVPARFSGSGSGTDFTLNIHPVEEEDTATYYCQHSWEIPLTFGAGTKLELK
B5: L1H7-C (antibody, V domains shown)
VH: QVQLQQSGPELVKPGASVKISCKASGYAFSSSWMNWVKQRPGKGLEWIGRIYPGNGNTNYNGKFKGKATLTADKSSSTAYMQLNSLTSEDSAVYFCASRFAYWGQGTLVAVSA
VL: DIVLTQSPASLAVSLGQRATISCRASKSVSTSGYSYMHWYQQKPGQPPKLLIYLASNLESGVPARFSGSGSGTDFTLNIHPVEEEDAATYYCQHSRELRTFGGGTKLEIK
B6: L1F2-C (antibody, V domains shown)
VH: QVHLQQSGAELVRPGTSVKVSCKASGYAFTNYVIEWVKQRPGQGLEWIGVINPGSGGTNYNENFKGKATLTADKSSSTAYMQLSSLTSEDSAVYFCARGTVELYAMDYWGQGTSVTVSS
VL: DIQMTQTTSSLSASLGDRVTISCRASQDISYYLNWYQQKPDGTVKLLISYTSRLHSGVPSRFSGSGSGTDYSLTISNLEQEDIATYFCQQDIKHPYTFGGGTELEIK
B7: L3E1-C (antibody, V domains shown)
VH: QVQLQQFGAELVKPGAAVKMSCKASGYTFTSYWITWVKQRPGQGLDWIGDIYPGGGSTNYHEKFKSKATLTVDTSSSTAYMQLSSLTSEDSAVYYCARGLRDFDYWGQGTTITVSS
VL: DIQMTQTASSLSASLGDRVTISCRASQHINNYLNWYQQKPDGTVKLLIYSTSRLHSGVPSRFSGSGSGTDFSLTISNLEPEDIATYYCQQYSKLPRTFGGGTKLEIK
B8: L2B11-C (antibody, V domains shown)
VH: EVKLVESEGGLVQPGSSMKLSCTASGFTFSDYYMAWVRQVPEKGLEWVGNINYDGSRTYYLDSLKSRFIISRDNGKNILYLQMSSLKSEDTATYYCAREGDNYGNSHYAMDYWGQGTSVTVSS
VL: DVLMTQTPLSLPVSLGDQASISCRSSQSFVHSNGNTYLEWYLQKPGQSPKLLIYKVSNRFSGVPDRFTGSGSGTDFTLKISRVEAEDLGVYYCFQGSHVPLTFGAGTRLELK
B9: L1D8-CR11-C (antibody, V domains shown)
VH: QVQLQQSGAELMKPGASLKLSCKATGYTFTGYWIEWVKQRPGHGLEWIGEILPGRSSTNYNERFKGKAIFTADTSSNTAYMQLSSLTTEDSAIYYCARGRRDFDYWGQGTTITVSS
VL: SIVMTQTPKFLPVSAGDRVTMTCKASQSVGNNVAWYQQKPGQSPKVLIYDASNRYTGVPDRFTGSGSGTDFTFTISSVQVEDLAVYFCQQYYSSPPTFGAGTKLELK
B10: L1D8-CR21-C (antibody, V domains shown)
VH: QVQLQQSGAELMKPGASLKLSCKATGYTFTGSWIEWVKQRPGHGLEWIGEILPGRSSTNYNERFKGKAIFTADTSSNTAYMQLSSLTTEDSAIYYCARGRRDFDYWGQGTTITVSS
VL: SIVMTQTPKFLPVSAGDRVTMTCKASQSVGNNVAWYQQKPGQSPKVLIYDASNRYTGVPDRFTGSGSGTDFTFTISSVQVEDLAVYFCQQYYSSPPTFGAGTKLELK
B11: L3D5-H1L1 (antibody, V domains shown)
VH: QVQMQESGPGLVKPSETLSLSCTASGYTFTDFYMNWVRQSAGKGLEWIGDINPNNGVTTYNQKFKDRASLSVDKSRNWASLRLASVTAADTAVYYCATGAIHYGYDGYFDVWGPGVQVTVSS
VL: EIVMTQSPDTLSVSPGETVTLSCRASQSISDYLHWYQQKPGQSPRLLIKYASQSISAFPARFVGSGSGSEFTLTINNMQSEDVAVYYCQNGHSFPLTFGQGTKVDIK

target: T1, 5T4 on SK-OV-3 cells (ATCC, CAT #HTB-79) (UniProt Q13641); assay: flow cytometry on SK-OV-3 cells
T1 sequence (looked up): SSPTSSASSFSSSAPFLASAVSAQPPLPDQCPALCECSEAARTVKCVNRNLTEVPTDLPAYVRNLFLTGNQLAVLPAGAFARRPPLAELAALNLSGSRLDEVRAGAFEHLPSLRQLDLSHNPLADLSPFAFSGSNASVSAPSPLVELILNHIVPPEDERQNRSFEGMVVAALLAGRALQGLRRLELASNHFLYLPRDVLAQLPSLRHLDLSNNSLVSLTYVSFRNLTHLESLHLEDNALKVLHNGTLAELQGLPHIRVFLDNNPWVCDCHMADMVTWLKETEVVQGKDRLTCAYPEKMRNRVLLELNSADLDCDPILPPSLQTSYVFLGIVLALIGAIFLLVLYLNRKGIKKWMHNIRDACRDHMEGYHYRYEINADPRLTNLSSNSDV

binding, binds:
B1, B2, B3, B4, B5, B6, B7, B8, B9, B10, B11
